Data as given in PubChem BioAssay AID1224830 (NIAID, 2016)

Assay: 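Host factors that control LPS-induced TNF expression in human macrophages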 (primary screen)
System: human THP-1 monocytic leukaemia cells, TNF dual-luciferase reporter clone, PMA-differentiated to macrophage-like cells
Reagent: siRNA pool against human genes, 50 nM
Duration: LPS for 4 h, given about 3 days after siRNA transfection
Treatment: bacterial LPS (TLR4 ligand), 10 ng/ml
Detection: 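Ratio of firefly to renilla light, scaled to the plate median and expressed as a robust z-score per replicate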
Direction: TNF reporter robust z-score: higher = stronger TNF reporter response to LPS
Hit rule: 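a well is active when its z-score exceeds 2.8 or falls below -1.5; control wells carry no call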
The deposit covers about 18,000 reagents; shown is a random part of them. About 2,900 of them (16%) count as active. 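Calls are made per well; low scores hint the gene aids the LPS response, high scores that it dampens it.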 Repeated entries: four replicate wells of each siRNA pool.

| target | TNF reporter robust z-score | Call |
| --- | --- | --- |
| UBE2J1 (GeneID 51465) | -0.47 | inactive |
| UBE2J1 (GeneID 51465) | -1.15 | inactive |
| UBE2J1 (GeneID 51465) | -0.18 | inactive |
| UBE2J1 (GeneID 51465) | 0.52 | inactive |
| VSIR (GeneID 64115) | 0.95 | inactive |
| VSIR (GeneID 64115) | -0.02 | inactive |
| VSIR (GeneID 64115) | 1.1 | inactive |
| VSIR (GeneID 64115) | 0.5 | inactive |
| PRKD1 (GeneID 5587) | -1.7 | active |
| PRKD1 (GeneID 5587) | -0.07 | inactive |
| PRKD1 (GeneID 5587) | -0.27 | inactive |
| PRKD1 (GeneID 5587) | -0.66 | inactive |
| G6PC2 (GeneID 57818) | -0.69 | inactive |
| G6PC2 (GeneID 57818) | 0.22 | inactive |
| G6PC2 (GeneID 57818) | 0.12 | inactive |
| G6PC2 (GeneID 57818) | 0.51 | inactive |
| MAGEB1 (GeneID 4112) | 1.38 | inactive |
| MAGEB1 (GeneID 4112) | 1.45 | inactive |
| MAGEB1 (GeneID 4112) | 1.64 | inactive |
| MAGEB1 (GeneID 4112) | 0.88 | inactive |
| MRPL51 (GeneID 51258) | 0.81 | inactive |
| MRPL51 (GeneID 51258) | -0.1 | inactive |
| MRPL51 (GeneID 51258) | 0.15 | inactive |
| MRPL51 (GeneID 51258) | 0.27 | inactive |
| KRTAP9-2 (GeneID 83899) | -1.43 | inactive |
| KRTAP9-2 (GeneID 83899) | 0.24 | inactive |
| KRTAP9-2 (GeneID 83899) | 0.54 | inactive |
| KRTAP9-2 (GeneID 83899) | 0.61 | inactive |
| CDH7 (GeneID 1005) | 0.54 | inactive |
| CDH7 (GeneID 1005) | 1.32 | inactive |
| CDH7 (GeneID 1005) | 1.08 | inactive |
| CDH7 (GeneID 1005) | 0.8 | inactive |
| MRPS18A (GeneID 55168) | 0.16 | inactive |
| MRPS18A (GeneID 55168) | 0.49 | inactive |
| MRPS18A (GeneID 55168) | -1.01 | inactive |
| MRPS18A (GeneID 55168) | 0.51 | inactive |
| RPGRIP1 (GeneID 57096) | -1.95 | active |
| RPGRIP1 (GeneID 57096) | -1.97 | active |
| RPGRIP1 (GeneID 57096) | -1.89 | active |
| RPGRIP1 (GeneID 57096) | -1.75 | active |
| ABCB4 (GeneID 5244) | 0.22 | inactive |
| ABCB4 (GeneID 5244) | 0.98 | inactive |
| ABCB4 (GeneID 5244) | 1.2 | inactive |
| ABCB4 (GeneID 5244) | 0.45 | inactive |
| MAGEB10 (GeneID 139422) | -0.82 | inactive |
| MAGEB10 (GeneID 139422) | -0.39 | inactive |
| MAGEB10 (GeneID 139422) | -0.81 | inactive |
| MAGEB10 (GeneID 139422) | -0.56 | inactive |
| TBL1Y (GeneID 90665) | -0.54 | inactive |
| TBL1Y (GeneID 90665) | -0.22 | inactive |
| TBL1Y (GeneID 90665) | -0.27 | inactive |
| TBL1Y (GeneID 90665) | -0.85 | inactive |
| MBLAC1 (GeneID 255374) | -0.5 | inactive |
| MBLAC1 (GeneID 255374) | 0.15 | inactive |
| MBLAC1 (GeneID 255374) | -0.24 | inactive |
| MBLAC1 (GeneID 255374) | -0.09 | inactive |
| LDLRAD2 (GeneID 401944) | -1.25 | inactive |
| LDLRAD2 (GeneID 401944) | -1.17 | inactive |
| LDLRAD2 (GeneID 401944) | -1.04 | inactive |
| LDLRAD2 (GeneID 401944) | -1.75 | active |
| HCFC1 (GeneID 3054) | -0.89 | inactive |
| HCFC1 (GeneID 3054) | -1.83 | active |
| HCFC1 (GeneID 3054) | -0.67 | inactive |
| HCFC1 (GeneID 3054) | -0.11 | inactive |
| KLHDC9 (GeneID 126823) | 4.36 | active |
| KLHDC9 (GeneID 126823) | 3.41 | active |
| KLHDC9 (GeneID 126823) | 1.02 | inactive |
| KLHDC9 (GeneID 126823) | 0.96 | inactive |
| PRSS3 (GeneID 5646) | 0.73 | inactive |
| PRSS3 (GeneID 5646) | 3.62 | active |
| PRSS3 (GeneID 5646) | 0.21 | inactive |
| PRSS3 (GeneID 5646) | -0.56 | inactive |
| SHARPIN (GeneID 81858) | 1.02 | inactive |
| SHARPIN (GeneID 81858) | 0.01 | inactive |
| SHARPIN (GeneID 81858) | -0.72 | inactive |
| SHARPIN (GeneID 81858) | -1.03 | inactive |
